# PMC5069676
# Chains of the proteins cited; added tags and fusions are not shown.
# UniProt P12004: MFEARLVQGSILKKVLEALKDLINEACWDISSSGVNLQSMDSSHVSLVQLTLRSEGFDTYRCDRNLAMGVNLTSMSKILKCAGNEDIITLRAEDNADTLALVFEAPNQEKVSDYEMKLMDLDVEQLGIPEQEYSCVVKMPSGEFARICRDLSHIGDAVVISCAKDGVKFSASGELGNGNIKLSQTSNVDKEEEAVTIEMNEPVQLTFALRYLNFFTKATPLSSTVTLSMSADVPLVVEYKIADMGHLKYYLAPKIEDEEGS
# UniProt P43490: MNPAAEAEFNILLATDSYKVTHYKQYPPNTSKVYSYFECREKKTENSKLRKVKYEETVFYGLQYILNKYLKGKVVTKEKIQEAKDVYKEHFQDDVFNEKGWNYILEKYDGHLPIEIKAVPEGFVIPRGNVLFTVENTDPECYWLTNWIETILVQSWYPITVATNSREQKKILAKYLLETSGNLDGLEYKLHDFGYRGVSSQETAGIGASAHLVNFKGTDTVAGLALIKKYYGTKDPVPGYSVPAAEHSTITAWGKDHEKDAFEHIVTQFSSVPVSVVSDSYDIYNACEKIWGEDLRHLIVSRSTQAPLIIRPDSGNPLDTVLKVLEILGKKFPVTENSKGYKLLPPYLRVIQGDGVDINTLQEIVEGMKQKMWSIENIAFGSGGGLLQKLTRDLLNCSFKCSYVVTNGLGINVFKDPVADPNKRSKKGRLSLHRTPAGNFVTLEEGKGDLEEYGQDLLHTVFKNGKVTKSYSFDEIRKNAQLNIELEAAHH
# UniProt P14618: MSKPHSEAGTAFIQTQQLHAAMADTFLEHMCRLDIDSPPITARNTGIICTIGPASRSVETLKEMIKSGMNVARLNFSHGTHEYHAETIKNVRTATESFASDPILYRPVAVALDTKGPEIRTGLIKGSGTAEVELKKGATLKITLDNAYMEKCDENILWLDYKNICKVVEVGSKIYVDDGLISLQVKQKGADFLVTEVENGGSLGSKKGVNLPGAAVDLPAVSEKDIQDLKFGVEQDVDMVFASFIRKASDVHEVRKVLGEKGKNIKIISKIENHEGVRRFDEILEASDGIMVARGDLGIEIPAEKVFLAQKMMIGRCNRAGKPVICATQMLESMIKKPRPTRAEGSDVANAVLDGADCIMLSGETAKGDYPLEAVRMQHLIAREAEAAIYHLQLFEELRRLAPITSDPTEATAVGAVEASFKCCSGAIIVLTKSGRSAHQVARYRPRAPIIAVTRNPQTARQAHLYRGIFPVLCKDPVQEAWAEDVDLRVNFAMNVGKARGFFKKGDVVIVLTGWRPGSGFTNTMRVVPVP
# Key:
# [1] = target: endogenous cytosolic PCNA of HL-60 cells (human (endogenous in HL-60)) (UniProt P12004); assay: affinity purification with mass spectrometry; co-immunoprecipitation of endogenous PCNA from the cytosolic fraction of daunorubicin-resistant HL-60R cells; partners identified by mass spectrometry (details in Supplementary Methods)
# [2] = target: endogenous cytosolic PCNA of HL-60 cells (human (endogenous in HL-60)) (UniProt P12004); assay: condition: only in daunorubicin-resistant HL-60R cells; affinity purification with mass spectrometry; co-immunoprecipitation of endogenous PCNA from the cytosolic fraction of daunorubicin-resistant HL-60R cells; partners identified by mass spectrometry (details in Supplementary Methods)
# [3] = target: endogenous cytosolic PCNA of HL-60 cells (human (endogenous in HL-60)) (UniProt P12004); assay: affinity purification with mass spectrometry; co-immunoprecipitation of endogenous PCNA from the cytosolic fraction of HL-60S cells; partners identified by mass spectrometry (details in Supplementary Methods)
binding [1],Substance,binding [2],binding [3]
binds,endogenous nicotinamide phosphoribosyltransferase (NAMPT) of HL-60 cells (from UniProt P43490 1-491) (enzyme),–,–
–,pyruvate kinase PKM2 (from UniProt P14618 1-531) (enzyme),no binding,binds

# No constants are given. Whether binding was seen depends on the method and setting. Binding seen in cells or lysates may run through a third protein. A yes stands for co-enrichment or nearness to the bait. Other partners may have been found. For part of these data: No binding means not detected with the bait.
